Source: PubChem BioAssay AID504444 (National Center for Advancing Translational Sciences (NCATS), 2011)
Values joined by “and” are separate entries in the source; they are usually repeats but may differ in a detail not shown here. Identical values can stand only once. Hit rate of the full screen: of about 360,000 compounds, about 7,500 (2.1%) were called active. Inconclusive results, whose numbers are uncertain, are shown with a selection of clear calls. The call rests on the fitted dose curve; in most records, active means well fitted inhibition curve with a large enough effect; inconclusive means small, poorly fitted or top-dose-only effect, or effect the other way; inactive means flat fitted curve, though single readings scatter. Potencies of inconclusive entries are doubtful fits and often do not repeat.

Test: Nrf2 qHTS screen for inhibitors; further: nearly all actives have a fitted effect of over 60% in size
Settings: A549 ARE-Fluc reporter, luciferase luminescence, 18-24 h; activity change, negative = inhibition: at 46 µM (top of the series)
Procedure, shortened: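 Nrf2 activity is the BugLite luminescence, read 15 min after reagent at room temperature, following CellTiter-Fluor cytotoxicity readout (30 min, 37C). Compound titrations were applied for 18-24 h to 5000 A549 ARE_Fluc cells/well in 5% FBS OPTI-MEM.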
On the % scale 0 is the no-effect control and ±100 the full control effect; potency means the concentration at half of the fitted maximal effect.

SMILES	Potency	activity change, negative = inhibition
Cc1noc(C)c1COc1ccc(C(=O)N2CCCC(C(F)(F)F)C2)cc1 (centres undefined)	inconclusive: 13 µM [falling, partial curve]	
CC(C)CCNC(=O)C(C)N(C(=O)c1snc(C(N)=O)c1N)c1cnc2ccccc2c1 (centres undefined)	inconclusive: 9.2 µM [falling, partial curve, poor fit]	
CC(=O)c1cccc(NC(=O)C(C)n2c(=O)cc(-c3ccccc3)c3c(C)nn(C)c32)c1 (centres undefined)	inconclusive: 5.17 µM [falling, partial curve, poor fit]	
O=C(CN1CCOCC1)Nc1nc2ccc([N+](=O)[O-])cc2s1	inconclusive: 5.8 µM [activator, full curve]	
COc1cccc(CNC(=O)c2ccc(NC(=O)N3CCCCc4ccccc43)cc2)c1OC	inconclusive: 23.1 µM [activator, single point]	
COc1cc(NC(=O)COC(=O)c2[nH]c(C)c(C(C)=O)c2C)cc(OC)c1	active: 13 µM	
C[C@@H]1COC(=O)[C@@H](CC(=O)OC(C)(C)C)C/C=C\C[C@H](CC(=O)NCCO)C(=O)N1		inactive: 8.12%
Cc1cccc2cc(C#N)c(NCCNC(=O)NC3CCCCC3)nc12	active: 9.2 µM	
COc1ccc2c(-c3ccc(S(N)(=O)=O)cc3)c(-c3ccc(S(C)(=O)=O)cc3)sc2c1	inconclusive: 16.4 µM [falling, single point]	
Cc1ccc(NC(=O)CCN2CCc3ccccc3C2)cc1	inconclusive: 25.9 µM [activator, single point]	
CCn1c(=O)c(C(=O)Nc2ccccn2)c(O)c2ccccc21	inconclusive: 11.6 µM [activator, partial curve, poor fit]	
O=C(COC(=O)c1cccs1)c1ccc2ccccc2c1	inconclusive: 29.1 µM [activator, single point]	
CCN1CCN(C(=O)c2ccc3c(c2)N(Cc2ccccc2F)C(=O)c2ccccc2S3=O)CC1 (centres undefined)		inactive: -4.48%
O=C(NCc1ccccn1)c1ccc(Cl)c(S(=O)(=O)N2CCCCC2)c1	inconclusive: 23.1 µM [falling, single point]	
Cc1ccc(C(C)C)c(OCC(=O)NCC(c2cccs2)N2CCOCC2)c1 (centres undefined)	inconclusive: 23.1 µM [falling, single point]	
O=S(=O)(/N=C(/NC(=S)Nc1ccccc1)c1ccccc1)c1ccc(Cl)cc1	inconclusive: 18.4 µM [activator, partial curve]	
COc1ccc(Cl)cc1NC(=O)C1CC(c2ccccc2O)=NO1 (centres undefined)	inconclusive: 13 µM [falling, partial curve, poor fit]	
O=c1c2ccccc2[nH]c(=S)n1CCC1=CCCCC1	inconclusive: 3.66 µM [activator, partial curve]	
COc1ccc(C(=O)Nc2ccc(Oc3nc(C)nc4sc(-c5ccccc5)cc34)cc2)cc1OC	inconclusive: 0.164 µM [falling, full curve, poor fit]	
COc1ccc(N2CCc3c(C)nc4c(OC)cc(OC)cc4c32)cc1		inactive: -19.9%
NNC(=O)c1ccc(COc2ccc3c(c2)CCC3)o1	inconclusive: 1.84 µM [activator, full curve]	
COc1ccccc1N1CCN(Cc2ccc(OC)c3ccccc23)CC1	inconclusive: 14.6 µM [falling, partial curve, poor fit]	

SMILES	Potency	activity change, negative = inhibition
Cc1ccc(NS(=O)(=O)c2ccc(C(=O)N3CCN(c4ncccn4)CC3)cc2)cc1	active: 5.8 µM	
O=C(NC(NC(=S)Nc1ccc(Cl)c(Cl)c1)C(Cl)(Cl)Cl)c1ccco1 (centres undefined)	inconclusive: 23.1 µM [falling, single point]	
C[n+]1ccc(/C=C/c2ccc(Br)cc2)cc1	active: 7.31 µM	
O=S(=O)(c1ccc(Oc2ccc(-c3nnco3)cc2)nc1)N1CCC(Cc2ccccc2)CC1	inconclusive: 8.2 µM [falling, partial curve, poor fit]	
O=[N+]([O-])c1cc(-c2nnc(Nc3ccc(O)cc3)c3ccccc23)ccc1N1CCOCC1	inconclusive: 29.1 µM [falling, single point]	
Oc1ccc2ccccc2c1CN1CCN(C/C=C/c2ccccc2)CC1		inactive: 6.64%
Fc1ccc(-c2nnc(SCc3cccnc3)o2)cc1	inconclusive: 2.31 µM [activator, full curve]	
Cc1cccc(C(=O)Nc2ccc(OCc3cc(=O)n4ccsc4n3)cc2)c1	inconclusive: 6.51 µM [falling, single point]	
c1ccc(-n2nc3c(ccc4cnnc43)[nH]2)cc1	inconclusive: 2.91 µM [activator, full curve]	
Cc1ccc(S(=O)(=O)N(Cc2ccc(Cl)cc2)c2ccccc2C(=O)O)cc1	inconclusive: 16.4 µM [falling, partial curve, poor fit]	
CC(=O)N/C(=C/c1ccc(Cl)cc1)C(=O)NCCc1c[nH]c2ccccc12	inconclusive: 6.51 µM [activator, single point]	
O=C(Cn1ccc2cc(S(=O)(=O)N3CCCCCC3)ccc21)NCCc1ccc(Cl)cc1	active: 25.9 µM	
O=C(C(=O)N1CCCCCC1)c1c[nH]c2ccccc12	inconclusive: 18.4 µM [activator, single point]	
CN(C)S(=O)(=O)c1ccc(C(=O)NCC(=O)N/N=C/c2ccccc2Cl)cc1	inconclusive: 0.651 µM [falling, full curve]	
COc1ccc(/C=C/C(=O)Nc2ccc(Cl)c(Cl)c2)cc1	inconclusive: 29.1 µM [falling, single point]	
Cc1cc(-c2ccc(C)c(S(=O)(=O)Nc3cccc(C#N)c3)c2)on1	active: 7.31 µM	
CCOC(=O)c1sc(NC(=O)c2cccs2)nc1C	inconclusive: 2.59 µM [activator, single point]	
CCOc1ccc(CCNC(=O)c2c(C)oc3ncn(C)c(=O)c23)cc1	inconclusive: 3.26 µM [activator, full curve, poor fit]	
COc1ccc(CCNc2ccc(S(=O)(=O)N3CCCC3)cc2[N+](=O)[O-])cc1	inconclusive: 14.6 µM [falling, partial curve, poor fit]	
CCCCn1c(NC(=O)c2ccccc2)c(C#N)c2nc3ccccc3nc21	inconclusive: 23.1 µM [falling, single point]	
CC(C)(c1ccccc1)c1ccc(OCc2ccc(C(=O)O)o2)cc1	inconclusive: 9.2 µM [activator, partial curve]	
Nc1ccc(S(=O)(=O)N2CCCC2C(=O)O)cc1 (centres undefined)		inactive: 4.88%

SMILES	Potency	activity change, negative = inhibition
Cc1cc(-n2c(C)cc(C(=O)COC(=O)CN=C3NS(=O)(=O)c4ccccc43)c2C)no1	inconclusive: 20.6 µM [falling, partial curve, poor fit]	
O=C(COc1ccc(F)cc1)NCCc1nc2ccccc2[nH]1	inactive and inconclusive: 25.9 µM [activator, partial curve, poor fit]	
Cc1cc(C(=O)COc2ccccc2[N+](=O)[O-])c(C)n1-c1cccc(S(=O)(=O)N2CCOCC2)c1	inconclusive: 29.1 µM [falling, single point]	
Fc1cccc(Cl)c1Cn1nnc2c(N3CCC4(CC3)OCCO4)ncnc21	inconclusive: 0.13 µM [falling, partial curve, poor fit]	
CCOC(=O)c1ccc(NC(=O)C2C3CCC(C3)C2C(=O)O)cc1 (centres undefined)	inconclusive: 18.4 µM [activator, partial curve]	
COc1ccc(NC(=O)CN(C)C(=O)CCc2ccccc2)cc1		inactive: -5.36%
COc1cccc(NC(=O)Cc2nnc(SCC(=O)NC3CCCC3)n2C)c1	inconclusive: 0.92 µM [activator, full curve, poor fit]	
COc1ccc(CNC(=S)NCc2ccc(F)cc2)cc1	inconclusive: 16.4 µM [falling, single point]	
COc1ccc(CCC(C)NCc2ccc(Cl)c(Cl)c2)cc1 (centres undefined)		inactive: -0.349%
O=C(CSc1nc(-c2ccco2)cc(C(F)(F)F)n1)NCCc1ccccc1	inconclusive: 18.4 µM [falling, partial curve]	
CCN(CC)c1ccc(/C=C2/SC(=O)N(C(C)C)C2=O)o1	inconclusive: 29.1 µM [activator, single point]	
N#CC1(NC(=O)CN2CCc3ccccc3C2)CCCC1	inconclusive: 25.9 µM [activator, partial curve, poor fit]	
CC1CC(C)CN(S(=O)(=O)c2ccc(NC(=O)CCN3C(=O)C4CC=CCC4C3=O)cc2)C1 (centres undefined)	inconclusive: 23.1 µM [falling, single point]	
CNS(=O)(=O)c1cc(-c2nnc(Nc3cc(C)ccc3C)c3ccccc23)ccc1C	inconclusive: 16.4 µM [falling, single point]	
O=C(Nc1ccc2c(c1)CCC2)c1cccc(S(=O)(=O)Nc2ccccc2Cl)c1	inconclusive: 23.1 µM [falling, single point]	
O=c1[nH][nH]c(C(F)(F)F)c1/C=N/N1CCOCC1		inactive: 10.3%
CC(C)(CNC(=O)CNC(=O)c1ccc(Cl)cc1Cl)N1CCOCC1		inactive: 4.3%
CCN(Cc1nc(-c2cccc(Cl)c2)no1)CC1CCCO1 (centres undefined)	inconclusive: 18.4 µM [activator, single point]	
CC(C)(C)c1ccc(CSc2nnc(-c3ccccn3)n2Cc2ccco2)cc1	inconclusive: 29.1 µM [falling, single point]	
CCOC(=O)C1=C(C)N=c2s/c(=C\c3ccc(OCC(=O)O)cc3)c(=O)n2C1c1ccc(OC(C)C)cc1 (centres undefined)	inconclusive: 32.6 µM [falling, single point]	
